## Library compounds against nucleic acid targets

Calls as published in the ROBIN set (doi:10.1002/anie.202211358).

Targets, with sequences 5′ to 3′:
TPP: TPP riboswitch RNA three-way junction, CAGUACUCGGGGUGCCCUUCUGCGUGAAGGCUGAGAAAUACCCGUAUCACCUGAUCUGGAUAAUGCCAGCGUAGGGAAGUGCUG. About 160 hits among about 24,000 compounds.
PreQ1: PreQ1 riboswitch RNA pseudoknot, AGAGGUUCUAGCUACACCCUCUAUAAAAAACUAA. From B. subtilis. About 170 hits among about 24,000 compounds.
SAM-II: SAM-II riboswitch RNA pseudoknot, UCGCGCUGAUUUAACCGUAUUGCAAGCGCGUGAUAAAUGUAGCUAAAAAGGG. About 200 hits among about 21,000 compounds.

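The test is a small-molecule microarray: each compound is printed twice on a reactive slide, and binding shows as fluorescence of the labelled oligonucleotide after washing. The data file lists only calls. An earlier report of the laboratory on the PreQ1, TPP and SAM-II riboswitches (doi:10.1038/s41467-019-09493-3) used 1 µM RNA for 2 h and required a mean Z-score above 3 (spot signal-to-noise against the whole library), a score well above that on a control array, and duplicate spots agreeing (coefficient of variation under 100); it then also set aside compounds that hit other targets, which this list keeps. The cut-offs behind this list may differ. These are primary screening calls, not affinities; a compound without a hit may have attached poorly or may still bind in solution.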 A compound is marked hit if it was called a hit and none if it was screened but was not. This is an unselected part of the compounds tested. A target missing from an entry has no call listed here.

{"compound": "O=[N+]([O-])c1cc2cccnc2c2ncccc12", "TPP": "none", "PreQ1": "none", "SAM-II": "none"}
{"compound": "COc1ccc(-c2c(C)c(C)nc(N)c2C#N)cc1", "TPP": "none", "PreQ1": "none", "SAM-II": "none"}
{"compound": "COCCCC1(CO)CCCN(CCOC)C1", "stereo": "stereo unspecified", "TPP": "none", "PreQ1": "none", "SAM-II": "none"}
{"compound": "O=C1[C@@H]2C[C@H](O)CCN2C(=O)CN1CCSc1ccccn1", "TPP": "none", "PreQ1": "none", "SAM-II": "none"}
{"compound": "O=C(O)CSCC(=O)NC1CCSC1=O", "stereo": "stereo unspecified", "TPP": "none", "PreQ1": "none", "SAM-II": "none"}
{"compound": "Oc1ccc(-c2csc(NCc3ccco3)n2)cc1", "TPP": "none", "PreQ1": "none", "SAM-II": "none"}
{"compound": "CCCCOCCOc1nc(-c2ccc(C(=O)O)c(F)c2)sc1C", "TPP": "none", "PreQ1": "none", "SAM-II": "none"}
{"compound": "Cc1ccc(Nc2cc(N3CCN(C(=O)c4ccc(C)cc4)CC3)nc(C)n2)cc1", "TPP": "none", "PreQ1": "none"}
{"compound": "COCCCNc1oc(-c2ccccc2F)nc1S(=O)(=O)c1ccccc1", "TPP": "none", "PreQ1": "none"}
{"compound": "C=CCn1c(=N)n(CC(O)COc2ccccc2)c2ccccc21.Cl", "stereo": "stereo unspecified", "TPP": "none", "PreQ1": "none", "SAM-II": "none"}
{"compound": "COc1ccc2c(c1)OC[C@]1(CO)CN(C(=O)c3noc4c3CCCC4)C[C@H]21", "TPP": "none", "PreQ1": "none", "SAM-II": "none"}
{"compound": "O=C(NC1CC1)C1CN(Cc2ccc(OCCc3ccccc3)cc2)CCN1", "stereo": "stereo unspecified", "TPP": "none", "PreQ1": "none", "SAM-II": "none"}
{"compound": "FC(F)(F)c1cccc(-c2cccc3c2CCNC3)n1", "TPP": "none", "PreQ1": "none", "SAM-II": "none"}
{"compound": "Fc1ccc(CCNCc2ccc3c(c2)OCO3)cc1", "TPP": "none", "PreQ1": "none", "SAM-II": "none"}
{"compound": "CCCCC(CC)Cn1c(-c2nonc2N)nc2ccccc21", "stereo": "stereo unspecified", "TPP": "none", "PreQ1": "none", "SAM-II": "none"}
{"compound": "COc1ccc(C(=O)c2cccc(N)c2)cc1OC", "TPP": "none", "PreQ1": "none", "SAM-II": "none"}
{"compound": "OC(CN1CCCCC1)Cn1c2ccc(Cl)cc2c2cc(Cl)ccc21", "stereo": "stereo unspecified", "TPP": "hit", "PreQ1": "none", "SAM-II": "hit"}
{"compound": "CCOc1ccc(CN2CCN(Cc3cc(C)cc(C)c3)C(=O)C2)cc1CO", "TPP": "none", "PreQ1": "none", "SAM-II": "none"}
{"compound": "Cc1ccc([C@@H]2CN(C(=O)c3cn(CCN)nn3)C[C@H]2NC(=O)C2CC2)cc1", "TPP": "none", "PreQ1": "none", "SAM-II": "none"}
{"compound": "Nc1ccc(SCc2nc3cccc4c3n2CCC4)cc1", "TPP": "none", "PreQ1": "none", "SAM-II": "none"}
{"compound": "COCCCC1(CO)CCCN(C(=O)C=C(C)C)C1", "stereo": "stereo unspecified", "TPP": "none", "PreQ1": "none", "SAM-II": "none"}
{"compound": "CC(C)c1cc(N2CCN(S(=O)(=O)N3CCCC3)CC2)nc(N)n1", "TPP": "none", "PreQ1": "none", "SAM-II": "none"}
{"compound": "CCOC(=O)C1=C(C)OC(N)=C(C#N)C12C(=O)N(Cc1cccc(Br)c1)c1ccccc12", "stereo": "stereo unspecified", "TPP": "none", "PreQ1": "none", "SAM-II": "none"}
{"compound": "CC(=O)NC1=C/C(=C\\[N+](=O)[O-])C=C1O", "TPP": "none", "PreQ1": "none", "SAM-II": "none"}
{"compound": "Cc1ccc(CN(CCO)Cc2cc(O)c3cc(C(N)=O)ccc3n2)s1", "TPP": "none", "PreQ1": "none", "SAM-II": "none"}
{"compound": "COc1ccc(-c2noc(-c3cccnc3NC3CCCC3)n2)cc1", "TPP": "none", "PreQ1": "none"}
{"compound": "CC(c1ccccc1)n1c(CO)nc2ccccc21", "stereo": "stereo unspecified", "TPP": "none", "PreQ1": "none", "SAM-II": "none"}
{"compound": "CCc1cc(Nc2ccccc2OC)n2ncnc2n1", "TPP": "none", "PreQ1": "none", "SAM-II": "none"}
{"compound": "CCNC(=O)[C@@H]1C[C@@H](N)CN1C(=O)CCn1c(C)cc(C)nc1=O", "TPP": "none", "PreQ1": "none", "SAM-II": "none"}
{"compound": "COc1ccc(OC)c(C2C(C#N)=C(N)Oc3cc(O)ccc32)c1", "stereo": "stereo unspecified", "TPP": "none", "PreQ1": "none", "SAM-II": "none"}
{"compound": "COc1ccc(OC)c(-c2noc(Nc3ccc4c(c3)OCO4)n2)c1", "TPP": "none", "PreQ1": "none"}
{"compound": "CCOC(=O)N1CCC(Nc2cc(C)nn3cnnc23)CC1", "TPP": "none", "PreQ1": "none", "SAM-II": "none"}
{"compound": "CCOC(=O)c1sc2nc(C3CC3)cc(-c3ccc(OC)cc3)c2c1N", "TPP": "none", "PreQ1": "none", "SAM-II": "none"}
{"compound": "Fc1ccc(OCCCN2CCN(Cc3cc4n(n3)CCNC4)CC2)cc1", "TPP": "none", "PreQ1": "none", "SAM-II": "none"}
{"compound": "Cc1ccc2nc(C3=C(N)N(CC4CCCO4)CC3=O)[nH]c2c1", "stereo": "stereo unspecified", "TPP": "none", "PreQ1": "none"}
{"compound": "Cc1ccc(NC(=O)Cn2nnc(C(=O)NCc3ccc(F)cc3)c2N)c(Cl)c1", "TPP": "none", "PreQ1": "none", "SAM-II": "none"}
{"compound": "Cc1cc(CC(C)NC(=O)c2cn([C@H]3CC[C@@H](N)CC3)nn2)[nH]n1", "stereo": "stereo partly specified", "TPP": "none", "PreQ1": "none", "SAM-II": "none"}

For reference, 3 entries once more:

compound	TPP	PreQ1	SAM-II
O=[N+]([O-])c1cc2cccnc2c2ncccc12	none	none	none
Cc1ccc([C@@H]2CN(C(=O)c3cn(CCN)nn3)C[C@H]2NC(=O)C2CC2)cc1	none	none	none
Cc1cc(CC(C)NC(=O)c2cn([C@H]3CC[C@@H](N)CC3)nn2)[nH]n1 (stereo partly specified)	none	none	none